# Some of these results come from one statement about several compounds together.
# How the values were obtained:
# [1] = system: bronchial hyperreactivity; details: individual drugs 0.3 mg/kg; comparison series (FIG. 16)
# Procedure: Mouse model of asthma. Female BALB/c mice (8 weeks: Charles River) were sensitized through subcutaneous administration of Ovalbumin (100 μg dissolved in 400 μl of AlOH3 13.5 mg/ml) on days 0 and 8, on the twenty-first day the mice were stimulated by aerosolic administration of Ovalbumin (3% for twenty minutes). The mice were sacrificed after 48 hours and the bronchi used for the evaluation of bronchial reactivity at carbachol and salbutamol. The drugs were administered intraperitoneally prior to each exposure to the allergen. […] Pulmonary tissues were harvested and used for dosage of cytokines such as IL-4 and IL-13. In addition plasma levels of IgE were measured.
# IL-4 = details: 0.3 mg/Kg; FIG. 18-B
# IL-13 = details: 0.3 mg/Kg; FIG. 18-C
smiles,measurement,setting,value
"CC(C)(O)c1ccccc1CC[C@@H](SCC1(CC(=O)O)CC1)c1cccc(/C=C/c2ccc3ccc(Cl)cc3n2)c1 [Montelukast, (R,E)-2-(1-((1-(3-(2-(7-Chloroquinolin-2-yl)vinyl)phenyl)-3-(2-(2-hydroxypropan-2-yl)phenyl)propylthio)-methyl)cyclopropyl)acetic acid]","p vs OVA, preventing bronchial hyperreactivity",[1],< 0.001
same,"p vs OVA, IL-4 pulmonary dosage",IL-4,< 0.05
same,"p vs OVA, IL-13 pulmonary dosage",IL-13,< 0.05

# — patent publication US20220218690A1, “MONTELUKAST SALTS AND PHARMACEUTICAL COMPOSITIONS CONTAINING THE SAME” (GENETIC S.P.A., priority 2019, published 2022)
